Test results taken from the supplement of paper PMC10735217.
Structures can show the parent of a compound that is named as a salt. Some of the results follow. Single values are uncertain here, since repeats match poorly.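 The human kidney-derived cells carry a stably integrated construct of eight TEAD-binding elements driving luciferase, read by luminescence in a drug-repurposing library screen. A compound counts as a hit when its signal is more than five robust Z scores above the plate mean.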

System: HEK293A TEAD-LUC reporter
Test: TEAD-luciferase reporter activity (YAP activation), robust Z score vs plate; higher = stronger YAP/TEAD activation
Conditions: 24 h

| SMILES | TEAD-luciferase reporter activity (compound concentration: 200 nM) | TEAD-luciferase reporter activity (compound concentration: 2 uM) | TEAD-luciferase reporter activity (compound concentration: 10 uM) |
| --- | --- | --- | --- |
| C[N+]1(CC(=O)c2ccccc2)C2CCC1CC(OC(=O)C(O)c1ccccc1)C2 (centres undefined) | inactive: 1.48 | inactive: -0.966 | inactive: 3.26 |
| CN1CC[C@]23c4c5ccc(O)c4O[C@H]2[C@@H](O[C@@H]2O[C@H](C(=O)O)[C@@H](O)[C@H](O)[C@H]2O)C=C[C@H]3[C@H]1C5 [Morphine 6-beta-D-glucuronide hydrate] | – | inactive: -1.29 | – |
| CN1CC[C@]23c4c5ccc(O)c4O[C@H]2[C@@H](O[C@@H]2O[C@H](C(=O)O)[C@@H](O)[C@H](O)[C@H]2O)C=C[C@H]3[C@H]1C5 [Morphine 6-Î^2-D-glucuronide hydrate] | inactive: -0.512 | – | inactive: 4.75 |
| CN1c2ccccc2C(c2ccccc2F)=NCC1CNC(=O)c1ccsc1 (centres undefined) [tifluadom] | inactive: 0.0774 | inactive: 0.0112 | inactive: 4.99 |
| CCOC(=O)[C@H]1[C@@H](OC(=O)c2ccccc2)C[C@@H]2CC[C@H]1N2C | inactive: -1.92 | inactive: -0.595 | inactive: 0.0876 |
| CCN1CCCCC12Cc1ccccc1CN(C(=O)Cc1ccc(O)cc1)C2 (centres undefined) | inactive: -1.77 | – | inactive: 2.23 |
| CN(C)CCO | inactive: -0.0115 | inactive: 1.54 | inactive: -0.306 |
| C[C@@H]1CN2c3c(cc4c(N5C(=O)OC[C@H]5C)noc4c3F)CC3(C(=O)NC(=O)NC3=O)[C@@H]2[C@@H](C)O1 [AZD-0914-isomer] | inactive: 0.0882 | inactive: -0.593 | inactive: -0.12 |
| CCCN1CCC[C@@H]2Cc3nc(N)ncc3C[C@H]21 [Quinelorane hydrochloride] | inactive: -0.748 | inactive: -0.715 | inactive: -0.617 |
| CCOC(=O)C1(c2ccccc2)CCN(C)CC1 [Pethidine hydrochloride] | inactive: -0.221 | inactive: -1.51 | inactive: 0.847 |
| CC(C)Cc1ccc(C(C)C(=O)Oc2cccc(C3(O)CCCCC3CN(C)C)c2)cc1 (centres undefined) | inactive: -0.802 | inactive: -0.5 | inactive: 0.0644 |
| CC(C)C1C(=O)NC(=S)NC1=O | inactive: 2.27 | inactive: -0.606 | inactive: 1.94 |
| COc1cc([C@@H]2c3cc4c(cc3[C@H](O)[C@H]3COC(=O)[C@H]23)OCO4)cc(OC)c1OC [Podofilox] | inactive: 0.189 | inactive: 4.79 | inactive: 3.31 |
| C[C@]12C=CC(=O)C=C1CC[C@@H]1[C@@H]2CC[C@]2(C)C(=O)CC[C@@H]12 | – | inactive: 3.9 | – |
| CC(C)NCC(O)c1ccc([N+](=O)[O-])cc1 (centres undefined) [nifenalol] | inactive: 0.206 | inactive: -1.38 | inactive: 1.39 |
| COc1ccc2c(c1)CN(C)CC2c1ccc(Cl)c(Cl)c1 (centres undefined) [diclofensine] | inactive: 1.8 | inactive: -1.2 | inactive: 1.21 |
| CC(=O)OCC(=O)[C@H]1CC[C@H]2[C@@H]3CC[C@H]4C[C@H](O)CCC4(C)[C@H]3C(=O)CC12C (some centres undefined) | inactive: -0.487 | inactive: -0.57 | inactive: -1.32 |
| Clc1ccc(C2CC3CCCC2N3)cn1 (centres undefined) | inactive: -1.28 | inactive: 0.144 | inactive: 0.963 |
| COc1cc(OC2CCN(Cc3ccc[n+]([O-])c3C)CC2)ccc1C(=O)N1CCC(N2C(=O)OCc3ccccc32)CC1 | inactive: -0.836 | inactive: -0.239 | inactive: -0.429 |

| SMILES | TEAD-luciferase reporter activity (compound concentration: 200 nM) | TEAD-luciferase reporter activity (compound concentration: 2 uM) | TEAD-luciferase reporter activity (compound concentration: 10 uM) |
| --- | --- | --- | --- |
| CN1CC[C@]2(C)C[C@@H](Cc3ccc(O)cc32)C1 | inactive: -1.37 | inactive: -1.18 | inactive: -1.43 |
| O=C(c1ccccc1)N1CCC(C(=O)O)(c2ccccc2)CC1 | inactive: -0.601 | – | – |
| NC(/N=N/C(N)=N/Cl)=N\Cl | inactive: -1.02 | inactive: -1.62 | inactive: 4.27 |
| CCCCCCC1C(=O)O[C@H](C)[C@H](NC(=O)c2cccc(NC=O)c2O)C(=O)O[C@@H](C)[C@@H]1OC(=O)CC(C)C (some centres undefined) [Antimycin A] | inactive: 4.88 | inactive: -1.33 | inactive: 0.808 |
| NC[C@H](O)c1ccccc1 [(R)-2-Amino-1-phenylethanol] | inactive: -0.636 | inactive: 1.51 | inactive: -1.15 |
| CCN(CC)[C@H](C)[C@@H](O)c1ccccc1 | inactive: 2.36 | inactive: -1.72 | inactive: 1.75 |
| N[C@@H](Cc1cc(Br)c(O)c(Br)c1)C(=O)O | inactive: -1.32 | inactive: -1.26 | active: 11.4 |
| CC(C)(C)c1ccc(CSc2cnn(C(C)(C)C)c(=O)c2Cl)cc1 | inactive: -1.13 | inactive: -0.0855 | inactive: -0.172 |
| CCCN1C[C@H](CSC)C[C@@H]2c3cccc4[nH]cc(c34)C[C@H]21 [pergolide] | inactive: -1.33 | – | active: 9.11 |
| CCCN1C[C@H](CSC)C[C@@H]2c3cccc4[nH]cc(c34)C[C@H]21 [pergolide mesylate, Lilly] | – | inactive: -0.203 | – |
| NC(=O)c1cccc([C@H]2C[C@H]3CC[C@@H](C2)N3CCNCC2CCCCC2)c1 | inactive: 1.85 | inactive: 1.04 | inactive: -1.02 |
| NC(=O)CN1CCN(Cc2nc(-c3cn(CC4CCOCC4)c4c(Cl)cccc34)no2)CC1 | inactive: 0.777 | inactive: -0.281 | inactive: 2.67 |
| [S]=[Hg] | inactive: -0.322 | – | inactive: -0.16 |
| O=C(O)C1CCCN(CCOC(c2ccccc2)c2ccccc2)C1 (centres undefined) | inactive: -0.695 | inactive: 0.0154 | inactive: -0.47 |
| C#Cc1cccc2c1c(C(=O)c1ccc(Cn3c(C)nc4cnccc43)c(F)c1)cn2C(=O)N(C)C | inactive: -1.53 | inactive: 0.0284 | inactive: 0.603 |
| CC[C@]1(O)C(=O)OCc2c1cc1n(c2=O)Cc2cc3c(OC)cccc3nc2-1 [9-Methoxycamptothecin] | inactive: -1.89 | inactive: -3.29 | inactive: -1.51 |
| CSc1ccc(CC(C)N)cc1 (centres undefined) | inactive: -0.28 | inactive: 1.4 | inactive: 0.778 |
| CC1OC2(CCN(C)CC2)CN1C=O (centres undefined) | inactive: -0.684 | inactive: -0.578 | inactive: 0.3 |
| CCOc1ccc(Cc2nc3cc(N(C)S(=O)(=O)c4cccs4)ccc3n2CC2CCCCC2)nc1 | inactive: 0.215 | inactive: 0.784 | inactive: -0.127 |

Copied from the entries so far (four entries):

| SMILES | TEAD-luciferase reporter activity (compound concentration: 200 nM) | TEAD-luciferase reporter activity (compound concentration: 2 uM) | TEAD-luciferase reporter activity (compound concentration: 10 uM) |
| --- | --- | --- | --- |
| C#Cc1cccc2c1c(C(=O)c1ccc(Cn3c(C)nc4cnccc43)c(F)c1)cn2C(=O)N(C)C | inactive: -1.53 | inactive: 0.0284 | inactive: 0.603 |
| CC[C@]1(O)C(=O)OCc2c1cc1n(c2=O)Cc2cc3c(OC)cccc3nc2-1 [9-Methoxycamptothecin] | inactive: -1.89 | inactive: -3.29 | inactive: -1.51 |
| CSc1ccc(CC(C)N)cc1 (centres undefined) | inactive: -0.28 | inactive: 1.4 | inactive: 0.778 |
| CC1OC2(CCN(C)CC2)CN1C=O (centres undefined) | inactive: -0.684 | inactive: -0.578 | inactive: 0.3 |

Next entries.

| SMILES | TEAD-luciferase reporter activity (compound concentration: 200 nM) | TEAD-luciferase reporter activity (compound concentration: 2 uM) | TEAD-luciferase reporter activity (compound concentration: 10 uM) |
| --- | --- | --- | --- |
| C=C(Br)CC1(C(C)C)C(=O)NC(=O)N(C)C1=O (centres undefined) | inactive: -1.03 | inactive: 0.848 | inactive: 1.39 |
| Cc1sc2c(c1C)C(c1ccc(Cl)cc1)=N[C@@H](CC(=O)Nc1ccc(O)cc1)c1nnc(C)n1-2 | inactive: 2.69 | active: 11.1 | active: 17.3 |
| CN1CC[C@@]2(C)c3cc(OC(=O)Nc4ccccc4)ccc3N(C)[C@@H]12 [phenserine] | inactive: -0.423 | inactive: 0.447 | inactive: -0.149 |
| COC1(C)CC(c2ccccc2)c2c(c3ccccc3oc2=O)O1 (centres undefined) | inactive: -0.796 | inactive: 1.65 | inactive: -1.3 |
| NC(=O)CN1CCCC1=O [piracetam] | inactive: 2.05 | inactive: 0.475 | inactive: -1.21 |
| C=C1C[C@@H]2[C@H](CC[C@]3(C)C(=O)CC[C@@H]23)[C@@]2(C)C=CC(=O)C=C12 [exemestane] | – | inactive: -1.68 | – |
| C=C1C[C@@H]2[C@H](CC[C@]3(C)C(=O)CC[C@@H]23)[C@@]2(C)C=CC(=O)C=C12 | inactive: -1.33 | – | inactive: 0.21 |
| O=C(O)C1N=C(c2ccccc2)c2cc(Cl)ccc2NC1=O (centres undefined) [Clorazepate dipotassium] | inactive: 0.681 | – | inactive: 2.11 |
| CCCN1CCO[C@@H]2c3cc(O)ccc3CC[C@H]21 [Naxagolide hydrochloride] | inactive: -3.42 | inactive: -1.47 | inactive: -1.72 |
| CCCCC/C=C\C/C=C\C/C=C\C/C=C\CCCC(=O)NCCO | inactive: -0.222 | inactive: 0.0928 | inactive: 1.91 |
| CCCCCCCc1cc(O)c(C/C=C(\C)CCC=C(C)C)c(O)c1 [Cannabigerol dimethylheptyl] | inactive: -1.59 | inactive: -0.0499 | inactive: 0.615 |
| C[C@]12CCC3C(CC[C@H]4C[C@@H](O)CC[C@]34C)[C@@H]1C[C@@H](Br)C2=O (some centres undefined) | inactive: -0.87 | inactive: 1.66 | inactive: 0.237 |
| C[C@H](Cc1c[nH]c2c(OCC(=O)O)cccc12)NC[C@H](O)c1cccc(Cl)c1 [Rafabegron] | inactive: -2.96 | inactive: -0.6 | inactive: 0.779 |
| C=CCC1(CC(=C)Br)C(=O)NC(=O)NC1=O | inactive: 0.921 | inactive: -0.0744 | inactive: 3.42 |
| CC(C)(C)NC[C@@H](O)c1ccc(F)cc1F | inactive: 0.262 | inactive: -1.54 | inactive: -0.0262 |
| CCN1CCC2CN(C)CCN2C1=O (centres undefined) [Centperazine] | inactive: -0.653 | inactive: -0.742 | inactive: 0.292 |
| Cc1nnc2n1-c1sc3c(c1C(c1ccccc1Cl)=NC2C)CCN(C(=O)C1CC1)C3 (centres undefined) | inactive: -1.11 | inactive: -0.91 | inactive: 0.498 |
| COc1cccc(C(=O)N2CCCC2C(=O)N2CCC(N3CCCC3=O)CC2)c1 (centres undefined) | inactive: 2.13 | – | inactive: 1.13 |
| CC(=O)Oc1ccc(CC(C(=O)O[C@H]2C[C@H]3CC[C@@H](C2)N3C)c2ccccc2)cc1 (some centres undefined) | inactive: 0.959 | inactive: 0.148 | inactive: -1.1 |
